Results reported in article PMC5561092.
These are yes or no findings as the source states them, for the method shown. Binding seen in cells or lysates may run through a third protein. Some entries that bind do so weakly or less than the wild type. For some of these results: Where a sequence is shown, tags or fusion partners need not be part of it. One block for each molecule: values may come before it.

By UniProt entry, the sequences of proteins in these tests, tags left out.
UniProt P19812: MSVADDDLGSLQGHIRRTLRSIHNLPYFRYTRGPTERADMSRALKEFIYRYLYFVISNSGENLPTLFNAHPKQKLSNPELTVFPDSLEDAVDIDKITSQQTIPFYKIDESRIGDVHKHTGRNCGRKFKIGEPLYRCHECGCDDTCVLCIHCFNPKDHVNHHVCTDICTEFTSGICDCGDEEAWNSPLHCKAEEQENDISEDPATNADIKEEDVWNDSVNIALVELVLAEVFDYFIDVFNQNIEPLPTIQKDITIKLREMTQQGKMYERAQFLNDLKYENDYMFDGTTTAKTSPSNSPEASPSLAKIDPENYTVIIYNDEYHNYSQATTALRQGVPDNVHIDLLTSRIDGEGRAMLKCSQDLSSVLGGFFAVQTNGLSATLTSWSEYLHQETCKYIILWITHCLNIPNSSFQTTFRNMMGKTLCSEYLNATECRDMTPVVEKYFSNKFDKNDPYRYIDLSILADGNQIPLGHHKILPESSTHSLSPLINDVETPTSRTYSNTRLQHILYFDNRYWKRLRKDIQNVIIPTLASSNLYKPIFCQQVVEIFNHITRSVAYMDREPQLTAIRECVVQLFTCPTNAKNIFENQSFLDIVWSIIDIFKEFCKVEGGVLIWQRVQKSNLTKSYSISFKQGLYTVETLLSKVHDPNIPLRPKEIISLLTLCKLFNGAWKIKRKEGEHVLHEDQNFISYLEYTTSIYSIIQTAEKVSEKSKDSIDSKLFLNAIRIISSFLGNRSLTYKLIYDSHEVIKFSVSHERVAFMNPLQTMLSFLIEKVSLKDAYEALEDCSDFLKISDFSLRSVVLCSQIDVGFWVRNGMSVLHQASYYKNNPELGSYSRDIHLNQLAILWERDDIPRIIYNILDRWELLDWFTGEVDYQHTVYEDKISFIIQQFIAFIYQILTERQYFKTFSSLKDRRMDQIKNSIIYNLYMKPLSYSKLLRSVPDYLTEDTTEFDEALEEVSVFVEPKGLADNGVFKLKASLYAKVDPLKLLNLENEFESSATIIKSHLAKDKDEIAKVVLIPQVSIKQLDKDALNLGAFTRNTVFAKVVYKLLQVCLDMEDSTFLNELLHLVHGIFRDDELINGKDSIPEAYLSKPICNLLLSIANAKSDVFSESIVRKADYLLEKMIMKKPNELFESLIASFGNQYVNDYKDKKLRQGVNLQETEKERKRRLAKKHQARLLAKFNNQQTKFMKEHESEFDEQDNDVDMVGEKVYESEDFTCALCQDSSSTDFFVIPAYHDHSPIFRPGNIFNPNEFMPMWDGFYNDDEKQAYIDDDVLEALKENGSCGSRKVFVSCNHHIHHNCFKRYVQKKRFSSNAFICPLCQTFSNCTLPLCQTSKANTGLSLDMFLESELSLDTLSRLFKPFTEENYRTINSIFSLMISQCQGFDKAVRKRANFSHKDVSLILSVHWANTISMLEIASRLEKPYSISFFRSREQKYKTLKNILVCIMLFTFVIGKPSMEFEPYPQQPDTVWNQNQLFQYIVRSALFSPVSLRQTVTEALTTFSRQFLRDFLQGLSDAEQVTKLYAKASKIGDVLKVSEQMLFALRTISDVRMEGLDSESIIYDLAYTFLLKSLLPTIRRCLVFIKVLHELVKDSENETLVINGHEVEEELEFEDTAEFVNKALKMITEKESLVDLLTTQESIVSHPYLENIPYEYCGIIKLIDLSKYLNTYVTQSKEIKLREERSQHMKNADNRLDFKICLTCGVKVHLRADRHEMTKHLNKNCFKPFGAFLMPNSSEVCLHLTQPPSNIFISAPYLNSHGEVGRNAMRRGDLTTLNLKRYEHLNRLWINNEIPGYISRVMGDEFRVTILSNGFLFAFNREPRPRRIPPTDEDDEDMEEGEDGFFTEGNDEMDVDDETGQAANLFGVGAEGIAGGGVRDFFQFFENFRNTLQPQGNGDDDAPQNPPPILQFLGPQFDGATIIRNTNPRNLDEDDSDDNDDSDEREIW
UniProt P36012: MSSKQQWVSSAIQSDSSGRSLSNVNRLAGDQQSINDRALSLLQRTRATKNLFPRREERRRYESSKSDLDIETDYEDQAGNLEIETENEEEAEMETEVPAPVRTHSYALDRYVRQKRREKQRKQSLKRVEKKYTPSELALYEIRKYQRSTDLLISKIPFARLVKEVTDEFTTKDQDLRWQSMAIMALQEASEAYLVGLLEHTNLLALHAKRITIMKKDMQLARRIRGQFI

How the values were obtained:
Test in all cases: co-IP; extracts of yeast cells co-expressing the two tagged proteins from plasmids, incubated with IgG beads coated with HA or Flag antibody; SDS-PAGE and western blotting with Flag or HA antibody; both directions
[1] = biological target: T1, HA-tagged Slx5 (S. cerevisiae) (UniProt P32828)
T1 sequence: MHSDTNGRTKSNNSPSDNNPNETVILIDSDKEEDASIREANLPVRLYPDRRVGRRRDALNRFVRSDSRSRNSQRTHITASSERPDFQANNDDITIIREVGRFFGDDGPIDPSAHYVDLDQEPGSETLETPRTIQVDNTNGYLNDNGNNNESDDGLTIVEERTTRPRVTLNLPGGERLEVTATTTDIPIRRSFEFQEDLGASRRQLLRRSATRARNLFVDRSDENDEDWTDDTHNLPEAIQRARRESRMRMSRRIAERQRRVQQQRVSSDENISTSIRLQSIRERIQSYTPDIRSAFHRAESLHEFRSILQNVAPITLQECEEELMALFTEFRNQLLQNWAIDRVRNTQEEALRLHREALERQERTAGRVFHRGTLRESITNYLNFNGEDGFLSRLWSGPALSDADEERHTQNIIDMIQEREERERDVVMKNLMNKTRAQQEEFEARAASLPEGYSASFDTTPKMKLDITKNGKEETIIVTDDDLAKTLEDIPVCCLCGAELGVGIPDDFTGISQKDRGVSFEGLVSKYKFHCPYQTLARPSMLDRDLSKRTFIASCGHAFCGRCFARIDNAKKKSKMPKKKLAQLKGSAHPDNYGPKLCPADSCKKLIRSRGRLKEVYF

[2] = biological target: Flag-tagged Ubr1 (S. cerevisiae) (UniProt P19812)
[3] = biological target: HA-tagged Cse4 (S. cerevisiae) (UniProt P36012)
[4] = biological target: Flag-Cse4 (S. cerevisiae) (UniProt P36012)

Molecule: Flag-Cse4 (from UniProt P36012 1-229)
binding [1]: binds

B1: HA-tagged Slx5 (enzyme, UniProt P32828 1-619)
chain: T1 sequence
binding [4]: binds

Second part, the molecule after the results:

binding [2]: binds
Molecule: HA-tagged Cse4 (from UniProt P36012 1-229)

binding [3]: binds
Molecule: Flag-tagged Ubr1 (from UniProt P19812 1-1950) (enzyme)
